Some entries share one result that the patent states for a list of compounds.
Columns and labels:
Format in all cases: in vivo
Diabrotica balteata = Diabrotica balteata (corn root worm) larvae test on artificial diet; conditions: 200 ppm (concentration in well 18 ppm), L2 larvae, larval mortality, growth regulation after 5 days
Tetranychus urticae = Tetranychus urticae (two-spotted spider mite) bean leaf disc spray test; conditions: 200 ppm sprayed on bean leaf discs, mixed ages; egg, larval and adult mortality 8 days later
Spodoptera littoralis = Spodoptera littoralis (Egyptian cotton leafworm) cotton leaf disc spray test; conditions: 200 ppm sprayed on cotton leaf discs, 5 L1 larvae; mortality, feeding behaviour, growth regulation 3 DAT
Plutella xylostella = Plutella xylostella (diamond back moth) larvae test on artificial diet; conditions: 200 ppm (concentration in well 18 ppm), L2 larvae, larval mortality, growth regulation after 6 days
Heliothis virescens = Heliothis virescens (tobacco budworm) egg test on artificial diet; conditions: 200 ppm (concentration in well 18 ppm), eggs 0-24 h old on artificial diet; egg mortality, larval mortality, growth regulation after 4 days
Thrips tabaci = Thrips tabaci (onion thrips) sunflower leaf disc spray test; conditions: 200 ppm sprayed on sunflower leaf discs, mixed ages; mortality after 7 days

Cc1cc(C(F)(C(F)(F)F)C(F)(F)F)cc(C)c1NC(=O)c1ccc(C#N)c(NC(=O)c2ccccc2Cl)c1 [A5]
at least 80%: control of Diabrotica balteata (Diabrotica balteata) | control of Tetranychus urticae (Tetranychus urticae) | control of Spodoptera littoralis (Spodoptera littoralis) | control of Plutella xylostella (Plutella xylostella)

Cc1cc(C(F)(C(F)(F)F)C(F)(F)F)cc(C)c1NC(=O)c1ccc(C#N)c(NC(=O)c2ccc([N+](=O)[O-])cc2)c1 [A6]
at least 80%: control of Diabrotica balteata (Diabrotica balteata) | control of Tetranychus urticae (Tetranychus urticae) | control of Spodoptera littoralis (Spodoptera littoralis) | control of Plutella xylostella (Plutella xylostella)

Cc1cc(C(F)(C(F)(F)F)C(F)(F)F)cc(C)c1NC(=O)c1ccc(C#N)c(NC(=O)c2ccc(OC(F)(F)F)cc2)c1 [A11]
at least 80%: control of Diabrotica balteata (Diabrotica balteata) | control of Tetranychus urticae (Tetranychus urticae) | control of Spodoptera littoralis (Spodoptera littoralis) | control of Plutella xylostella (Plutella xylostella)

Cc1cc(C(F)(C(F)(F)F)C(F)(F)F)cc(C)c1NC(=O)c1ccc(C#N)c(NC(=O)c2ccc(C(F)(F)F)cc2)c1 [A13]
at least 80%: control of Heliothis virescens (Heliothis virescens) | control of Diabrotica balteata (Diabrotica balteata) | control of Tetranychus urticae (Tetranychus urticae) | control of Spodoptera littoralis (Spodoptera littoralis) | control of Plutella xylostella (Plutella xylostella)

Cc1cc(C(F)(C(F)(F)F)C(F)(F)F)cc(C)c1NC(=O)c1ccc(C#N)c(NC(=O)c2ccc(F)cc2)c1 [A16]
at least 80%: control of Heliothis virescens (Heliothis virescens) | control of Diabrotica balteata (Diabrotica balteata) | control of Tetranychus urticae (Tetranychus urticae) | control of Spodoptera littoralis (Spodoptera littoralis) | control of Plutella xylostella (Plutella xylostella)

Cc1cc(C(F)(C(F)(F)F)C(F)(F)F)cc(C)c1NC(=O)c1ccc(C#N)c(NC(=O)c2ccccc2C(F)(F)F)c1 [A17]
at least 80%: control of Diabrotica balteata (Diabrotica balteata) | control of Tetranychus urticae (Tetranychus urticae) | control of Spodoptera littoralis (Spodoptera littoralis) | control of Plutella xylostella (Plutella xylostella)

Cc1cc(C(F)(C(F)(F)F)C(F)(F)F)cc(C)c1NC(=O)c1ccc(C#N)c(NC(=O)c2cccc(F)c2F)c1 [A18]
at least 80%: control of Diabrotica balteata (Diabrotica balteata) | control of Tetranychus urticae (Tetranychus urticae) | control of Spodoptera littoralis (Spodoptera littoralis) | control of Plutella xylostella (Plutella xylostella)

CCc1cc(C(F)(C(F)(F)F)C(F)(F)F)cc(CC)c1NC(=O)c1ccc(C#N)c(NC(=O)c2ccccc2F)c1 [A23]
at least 80%: control of Heliothis virescens (Heliothis virescens) | control of Diabrotica balteata (Diabrotica balteata) | control of Tetranychus urticae (Tetranychus urticae) | control of Spodoptera littoralis (Spodoptera littoralis) | control of Plutella xylostella (Plutella xylostella)

Cc1cc(C(F)(C(F)(F)F)C(F)(F)F)cc(Br)c1NC(=O)c1ccc(C#N)c(NC(=O)c2ccc(C#N)cc2)c1 [A84]
at least 80%: control of Heliothis virescens (Heliothis virescens) | control of Diabrotica balteata (Diabrotica balteata) | control of Tetranychus urticae (Tetranychus urticae) | control of Spodoptera littoralis (Spodoptera littoralis) | control of Plutella xylostella (Plutella xylostella)

Cc1cc(C(F)(C(F)(F)F)C(F)(F)F)cc(Br)c1NC(=O)c1ccc(C#N)c(NC(=O)c2ccco2)c1 [A88]
at least 80%: control of Heliothis virescens (Heliothis virescens) | control of Tetranychus urticae (Tetranychus urticae) | control of Spodoptera littoralis (Spodoptera littoralis) | control of Plutella xylostella (Plutella xylostella)

Cc1cc(C(F)(C(F)(F)F)C(F)(F)F)cc(Br)c1NC(=O)c1ccc(C#N)c(NC(=O)c2ccc(OC(F)(F)F)cc2)c1 [A89]
at least 80%: control of Heliothis virescens (Heliothis virescens) | control of Diabrotica balteata (Diabrotica balteata) | control of Tetranychus urticae (Tetranychus urticae) | control of Spodoptera littoralis (Spodoptera littoralis) | control of Plutella xylostella (Plutella xylostella)

Cc1cc(C(F)(C(F)(F)F)C(F)(F)F)cc(Br)c1NC(=O)c1ccc(C#N)c(NC(=O)c2ccccc2C(F)(F)F)c1 [A96]
at least 80%: control of Heliothis virescens (Heliothis virescens) | control of Diabrotica balteata (Diabrotica balteata) | control of Tetranychus urticae (Tetranychus urticae) | control of Spodoptera littoralis (Spodoptera littoralis) | control of Plutella xylostella (Plutella xylostella)

Cc1cc(C(F)(C(F)(F)F)C(F)(F)C(F)(F)F)cc(Br)c1NC(=O)c1ccc(C#N)c(NC(=O)c2ccc(F)c(C(F)(F)F)c2)c1 (centres unmarked) [A110]
at least 80%: control of Heliothis virescens (Heliothis virescens) | control of Diabrotica balteata (Diabrotica balteata) | control of Tetranychus urticae (Tetranychus urticae) | control of Spodoptera littoralis (Spodoptera littoralis) | control of Plutella xylostella (Plutella xylostella)

CCc1cc(C(F)(C(F)(F)F)C(F)(F)C(F)(F)F)cc(Br)c1NC(=O)c1ccc(C#N)c(NC(=O)c2ccc([N+](=O)[O-])cc2)c1 (centres unmarked) [A145]
at least 80%: control of Heliothis virescens (Heliothis virescens) | control of Diabrotica balteata (Diabrotica balteata) | control of Thrips tabaci (Thrips tabaci) | control of Spodoptera littoralis (Spodoptera littoralis) | control of Plutella xylostella (Plutella xylostella)

CCc1cc(C(F)(C(F)(F)F)C(F)(F)C(F)(F)F)cc(Br)c1NC(=O)c1ccc(C#N)c(NC(=O)c2cc(Cl)ccc2F)c1 (centres unmarked) [A146]
at least 80%: control of Heliothis virescens (Heliothis virescens) | control of Diabrotica balteata (Diabrotica balteata) | control of Thrips tabaci (Thrips tabaci) | control of Spodoptera littoralis (Spodoptera littoralis) | control of Plutella xylostella (Plutella xylostella)

CCc1cc(C(F)(C(F)(F)F)C(F)(F)C(F)(F)F)cc(Br)c1NC(=O)c1ccc(C#N)c(NC(=O)c2ccco2)c1 (centres unmarked) [A148]
at least 80%: control of Heliothis virescens (Heliothis virescens) | control of Diabrotica balteata (Diabrotica balteata) | control of Thrips tabaci (Thrips tabaci) | control of Spodoptera littoralis (Spodoptera littoralis) | control of Plutella xylostella (Plutella xylostella)

CCc1cc(C(F)(C(F)(F)F)C(F)(F)C(F)(F)F)cc(Br)c1NC(=O)c1ccc(C#N)c(NC(=O)c2ccc(C(F)(F)F)cc2)c1 (centres unmarked) [A151]
at least 80%: control of Heliothis virescens (Heliothis virescens) | control of Diabrotica balteata (Diabrotica balteata) | control of Thrips tabaci (Thrips tabaci) | control of Spodoptera littoralis (Spodoptera littoralis) | control of Plutella xylostella (Plutella xylostella)

CCc1cc(C(F)(C(F)(F)F)C(F)(F)C(F)(F)F)cc(Br)c1NC(=O)c1ccc(C#N)c(NC(=O)c2ccccc2C(F)(F)F)c1 (centres unmarked) [A156]
at least 80%: control of Heliothis virescens (Heliothis virescens) | control of Diabrotica balteata (Diabrotica balteata) | control of Thrips tabaci (Thrips tabaci) | control of Spodoptera littoralis (Spodoptera littoralis) | control of Plutella xylostella (Plutella xylostella)

CCc1cc(C(F)(C(F)(F)F)C(F)(F)C(F)(F)F)cc(Br)c1NC(=O)c1ccc(C#N)c(NC(=O)c2ccccc2F)c1 (centres unmarked) [A162]
at least 80%: control of Heliothis virescens (Heliothis virescens) | control of Diabrotica balteata (Diabrotica balteata) | control of Thrips tabaci (Thrips tabaci) | control of Spodoptera littoralis (Spodoptera littoralis) | control of Plutella xylostella (Plutella xylostella)

COCc1cc(C(F)(C(F)(F)F)C(F)(F)F)cc(C)c1NC(=O)c1ccc(C#N)c(NC(=O)c2ccccc2C)c1 [A164]
at least 80%: control of Heliothis virescens (Heliothis virescens) | control of Diabrotica balteata (Diabrotica balteata) | control of Tetranychus urticae (Tetranychus urticae) | control of Spodoptera littoralis (Spodoptera littoralis) | control of Plutella xylostella (Plutella xylostella)

COCc1cc(C(F)(C(F)(F)F)C(F)(F)F)cc(C)c1NC(=O)c1ccc(C#N)c(NC(=O)c2ccc(OC(F)(F)F)cc2)c1 [A171]
at least 80%: control of Heliothis virescens (Heliothis virescens) | control of Diabrotica balteata (Diabrotica balteata) | control of Tetranychus urticae (Tetranychus urticae) | control of Plutella xylostella (Plutella xylostella)

COCc1cc(C(F)(C(F)(F)F)C(F)(F)F)cc(C)c1NC(=O)c1ccc(C#N)c(NC(=O)c2snnc2C)c1 [A177]
at least 80%: control of Heliothis virescens (Heliothis virescens) | control of Diabrotica balteata (Diabrotica balteata) | control of Tetranychus urticae (Tetranychus urticae) | control of Plutella xylostella (Plutella xylostella)

CCc1cc(C(F)(C(F)(F)F)C(F)(F)C(F)(F)F)cc(C)c1NC(=O)c1ccc(C#N)c(NC(=O)c2cc(F)cc(F)c2)c1 (centres unmarked) [A196]
at least 80%: control of Heliothis virescens (Heliothis virescens) | control of Diabrotica balteata (Diabrotica balteata) | control of Thrips tabaci (Thrips tabaci) | control of Spodoptera littoralis (Spodoptera littoralis) | control of Plutella xylostella (Plutella xylostella)

Cc1cccc(C(=O)Nc2cc(C(=O)Nc3c(C)cc(C(F)(C(F)(F)F)C(F)(F)F)cc3C)ccc2C#N)c1C [A205]
at least 80%: control of Heliothis virescens (Heliothis virescens) | control of Tetranychus urticae (Tetranychus urticae) | control of Spodoptera littoralis (Spodoptera littoralis) | control of Plutella xylostella (Plutella xylostella)

Cc1cc(C(F)(C(F)(F)F)C(F)(F)F)cc(C)c1NC(=O)c1ccc(C#N)c(NC(=O)c2ccc(Cl)nc2Cl)c1 [A207]
at least 80%: control of Heliothis virescens (Heliothis virescens) | control of Diabrotica balteata (Diabrotica balteata) | control of Tetranychus urticae (Tetranychus urticae) | control of Plutella xylostella (Plutella xylostella)

Cc1cc(C(F)(C(F)(F)F)C(F)(F)F)cc(C)c1NC(=O)c1ccc(C#N)c(NC(=O)c2ccc(F)c(F)c2F)c1 [A209]
at least 80%: control of Heliothis virescens (Heliothis virescens) | control of Tetranychus urticae (Tetranychus urticae) | control of Spodoptera littoralis (Spodoptera littoralis) | control of Plutella xylostella (Plutella xylostella)

COCc1cc(C(F)(C(F)(F)F)C(F)(F)F)cc(C)c1NC(=O)c1ccc(C#N)c(NC(=O)c2ccc(C)cc2)c1 [A220]
at least 80%: control of Heliothis virescens (Heliothis virescens) | control of Tetranychus urticae (Tetranychus urticae) | control of Spodoptera littoralis (Spodoptera littoralis) | control of Plutella xylostella (Plutella xylostella)

Cc1cc(C(F)(C(F)(F)F)C(F)(F)F)cc(C)c1NC(=O)c1ccc(C#N)c(N(C)C(=O)c2ccc(F)cc2)c1 [C17]
at least 80%: control of Heliothis virescens (Heliothis virescens) | control of Diabrotica balteata (Diabrotica balteata) | control of Thrips tabaci (Thrips tabaci) | control of Spodoptera littoralis (Spodoptera littoralis) | control of Plutella xylostella (Plutella xylostella)

Source: patent US8389766B2, “Insecticidal compounds” (Syngenta Crop Protection LLC, priority 2006, dated 2013)
